The source gives many values for each of these; only a part stands here.
test: Stability test of BTG 1640 salts under storage conditions: total impurities; type: physicochemical; details: T = 5° C.; time 0 (months)
Description: Contemporaneously, the impurity analysis in the conditions a)-d) of T/% RH were carried out.
As a confirmation of such evidence, a test for the evaluation of the impurity percentage of the sample subjected to the same conditions a)-d) of T/% RH was parallely carried out. The experimental values in Table 4 were obtained.

SMILES | % impurities [%]
CN1OC2CCCC(=O)C2C1Cc1ccccc1.O=C(O)/C=C\C(=O)O (stereo not drawn) [BTG 1640 maleate] | 0.23
CN1OC2CCCC(=O)C2C1Cc1ccccc1.CS(=O)(=O)O (stereo not drawn) [BTG 1640 methanesulphonate] | 0.42
CN1OC2CCCC(=O)C2C1Cc1ccccc1.O=C(O)CCC(=O)O (stereo not drawn) [BTG 1640 succinate] | 0.77

same assay, conditions: T = 40° C., humidity 75% RH; time 0 (months)

SMILES | % impurities [%]
CN1OC2CCCC(=O)C2C1Cc1ccccc1.O=C(O)/C=C\C(=O)O (stereo not drawn) [BTG 1640 maleate] | 0.23
CN1OC2CCCC(=O)C2C1Cc1ccccc1.CS(=O)(=O)O (stereo not drawn) [BTG 1640 methanesulphonate] | 0.42
CN1OC2CCCC(=O)C2C1Cc1ccccc1.O=C(O)CCC(=O)O (stereo not drawn) [BTG 1640 succinate] | 0.77
